Results on 1 molecule are retold here after publication PMC9376731.

These are yes or no findings as the source states them, for the method shown. Binding seen in cells or lysates may run through a third protein. Some entries that bind do so weakly or less than the wild type.

In this test the target is T1, fidgetin (mouse (endogenous in mouse oocytes)) (UniProt Q9ERZ6).
T1 sequence: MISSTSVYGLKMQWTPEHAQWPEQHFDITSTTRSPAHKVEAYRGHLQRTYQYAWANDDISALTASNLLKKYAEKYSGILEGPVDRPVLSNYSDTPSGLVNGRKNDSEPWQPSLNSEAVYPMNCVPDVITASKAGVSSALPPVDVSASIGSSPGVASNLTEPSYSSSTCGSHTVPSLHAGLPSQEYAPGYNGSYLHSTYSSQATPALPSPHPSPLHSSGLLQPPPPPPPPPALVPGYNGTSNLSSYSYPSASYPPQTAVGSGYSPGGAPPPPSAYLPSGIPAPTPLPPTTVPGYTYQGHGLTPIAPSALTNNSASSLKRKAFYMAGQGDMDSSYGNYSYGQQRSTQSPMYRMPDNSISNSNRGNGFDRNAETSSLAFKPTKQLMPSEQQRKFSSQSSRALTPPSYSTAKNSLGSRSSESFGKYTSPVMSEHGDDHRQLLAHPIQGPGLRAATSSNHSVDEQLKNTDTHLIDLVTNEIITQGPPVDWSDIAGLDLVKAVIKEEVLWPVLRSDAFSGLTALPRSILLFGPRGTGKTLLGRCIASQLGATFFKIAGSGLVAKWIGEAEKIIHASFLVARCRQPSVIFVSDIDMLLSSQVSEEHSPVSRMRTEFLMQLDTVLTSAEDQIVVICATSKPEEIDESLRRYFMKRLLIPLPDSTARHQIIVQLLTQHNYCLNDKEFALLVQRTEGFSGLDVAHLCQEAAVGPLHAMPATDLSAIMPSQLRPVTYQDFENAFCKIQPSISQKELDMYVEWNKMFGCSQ
The test can be described thus: co-IP; co-immunoprecipitation with anti-ZP3 and anti-fidgetin antibodies in mouse oocyte lysate; IP buffer 20 mmol/L Tris-HCl pH 8.0, 150 mmol/L NaCl, 0.05% Triton X-100, 0.05% Nonidet P-40, overnight at 4 °C.

B1: ZP3 (protein, UniProt P10761 23-351)
chain: QTLWLLPGGTPTPVGSSSPVKVECLEAELVVTVSRDLFGTGKLVQPGDLTLGSEGCQPRVSVDTDVVRFNAQLHECSSRVQMTKDALVYSTFLLHDPRPVSGLSILRTNRVEVPIECRYPRQGNVSSHPIQPTWVPFRATVSSEEKLAFSLRLMEENWNTEKSAPTFHLGEVAHLQAEVQTGSHLPLQLFVDHCVATPSPLPDPNSSPYHFIVDFHGCLVDGLSESFSAFQVPRPRPETLQFTVDVFHFANSSRNTLYITCHLKVAPANQIPDKLNKACSFNKTSQSWLPVEGDADICDCCSHGNCSNSSSSQFQIHGPRQWSKLVSRN
For the molecule B1, the binding entry is given as “binds”.
